Results published in PubChem BioAssay AID720504 (National Center for Advancing Translational Sciences (NCATS), 2013).
Screen size: about 360,000 compounds; about 10,000 (2.8%) were called active. Inconclusive means that the source gave no clear call. Such entries were picked first, then a sample of the others. Calls follow the shape of the dose curve; as a rule, active = well fitted inhibition curve with a large enough effect; inconclusive = small, poorly fitted or top-dose-only effect; inactive = flat fitted curve, though single readings scatter. Potencies beside an inconclusive call are fits to weak or partial responses and may not hold up.

By UniProt entry, the sequences of proteins in these tests, tags left out.
UniProt P53350, whole entry, looked up: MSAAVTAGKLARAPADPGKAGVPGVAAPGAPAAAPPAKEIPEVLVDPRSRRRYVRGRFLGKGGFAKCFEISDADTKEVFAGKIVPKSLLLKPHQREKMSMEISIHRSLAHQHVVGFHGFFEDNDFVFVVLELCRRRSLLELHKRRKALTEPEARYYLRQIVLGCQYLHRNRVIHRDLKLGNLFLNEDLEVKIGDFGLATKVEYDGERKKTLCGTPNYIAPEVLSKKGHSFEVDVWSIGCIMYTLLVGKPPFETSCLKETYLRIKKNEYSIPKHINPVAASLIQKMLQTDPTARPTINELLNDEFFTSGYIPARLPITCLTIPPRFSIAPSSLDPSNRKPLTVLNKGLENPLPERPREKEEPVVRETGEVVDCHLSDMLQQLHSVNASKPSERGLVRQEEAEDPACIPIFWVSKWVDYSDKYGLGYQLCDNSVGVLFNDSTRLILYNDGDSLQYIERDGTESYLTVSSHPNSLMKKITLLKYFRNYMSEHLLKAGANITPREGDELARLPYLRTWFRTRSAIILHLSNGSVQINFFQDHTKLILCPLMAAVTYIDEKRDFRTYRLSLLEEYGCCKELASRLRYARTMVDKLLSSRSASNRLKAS

target: Serine/threonine-protein kinase PLK1 (Homo sapiens) (UniProt P53350); assay: qHTS for Inhibitors of PLK1-PDB (polo-like kinase 1 - polo-box domain): Primary Screen; conditions: Plk1 PBD binding of FITC phosphopeptide, fluorescence polarization; also: nearly all actives have a fitted effect of over 65% in size; as to max response, negative = inhibition: series mostly up to about 57 µM
% is scaled to controls: 0 for no effect and ±100 for the full control effect; potency is read from the fitted curve at half-maximal effect.

SMILES | Potency | max response, negative = inhibition
O=C1CN(C(=O)COC(=O)CCSc2ccccc2Cl)c2ccccc2N1 | inconclusive: 22.4 µM [inhibitor, partial curve] | –
FC(F)(F)c1ccc(Cl)c(-n2c(-c3cc(C4CC4)[nH]n3)n[nH]c2=S)c1 | – | inactive: -25.9%
COc1ccc(NC(=O)c2sc(=S)[nH]c2N)cc1 | inconclusive: 26.7 µM [inhibitor, partial curve] | –
COc1ccc(CCNC(=O)Nc2ccccc2[N+](=O)[O-])cc1 | inconclusive: 23.8 µM [inhibitor, single point] | –
O=C(NNS(=O)(=O)c1ccc(C(=O)NC2CCCC2)cc1)c1ccncc1 | inconclusive: 10.6 µM [inhibitor, partial curve] | –
C/C(=N\N1CCN(c2ccccc2)CC1)c1ccco1 | inconclusive: 21.2 µM [inhibitor, single point] | –
CC(C)c1ccc(NC(=O)C2Cc3c(-c4ccco4)ccnc3O2)cc1 (centres undefined) | inconclusive: 75.2 µM [inhibitor, partial curve] | –
O=C1CSC(=S)N1N=Cc1ccccc1O | active: 13.4 µM | –
CN(Cc1ccc(OC(F)F)cc1)C(=O)c1ccccc1Sc1ccccc1C#N | – | inactive: 0.102%
Cc1ccc(C)c(NS(=O)(=O)c2ccc3oc(=O)ccc3c2)c1 | – | inactive: 4.58%
N#CC1=C(S)N=C(N)C(c2nc(-c3ccccc3)cs2)C12CCCC2 (centres undefined) | inconclusive: 2.99 µM [inhibitor, full curve] | –
CC(NC(=O)c1cn(C(C)c2ccccc2F)nn1)c1ccncc1 (centres undefined) | inconclusive: 37.7 µM [inhibitor, single point] | –
C[C@H](CO)N1C[C@H](C)[C@@H](CN(C)Cc2ccc(C(=O)O)cc2)Oc2c(NC(=O)Cc3ccccc3)cccc2C1=O | – | inactive: 1.85%
O=C1CSC(c2ccccc2)N1c1cccnc1 (centres undefined) | inconclusive: 37.7 µM [inhibitor, single point] | –
COc1ccc2c3c(cccc13)N(C)N=C2C | active: 21.2 µM | –
COc1ccc(NC(=O)COC(=O)c2ccc(OCc3ccccc3Cl)c(OC)c2)c(OC)c1 | inconclusive: 23.8 µM [inhibitor, partial curve] | –
CCSc1nnc(NS(=O)(=O)c2ccc(C)cc2)s1 | inconclusive: 29.9 µM [inhibitor, single point] | –
O=C(O)c1ccccc1-n1c2ccccc2c2ccccc21 | inconclusive: 29.9 µM [inhibitor, partial curve] | –
O=C(O)/C=C/c1cn(Cc2ccccc2Cl)nc1-c1ccccc1 | active: 26.7 µM | –
CC(C)c1cccc(-c2ccc3c(c2)S(=O)(=O)c2cccc(C(=O)O)c2C3=O)c1 | inconclusive: 29.9 µM [inhibitor, single point] | –
CCOC(=S)SCc1cn2ccc(C)cc2n1 | – | inactive: -12.8%
CCOC(=O)CC(NS(=O)(=O)Cc1ccccc1)c1ccc(C)cc1 (centres undefined) | – | inactive: -10.2%
O=C(Nc1ccc2c(c1)OC1(CCCC1)O2)C1CC1 | active: 26.7 µM | –
CN(Cc1nc2ccccc2n1C)S(=O)(=O)c1ccc(Cl)cc1 | active: 13.4 µM | –
Cn1cc(C(=O)C(=O)N2CCCCC2)c2ccccc21 | inconclusive: 37.7 µM [inhibitor, single point] | –

Molecules from the list above with an aryl thioether with sulfur outside any ring, in the order listed:
SMILES | Potency | max response, negative = inhibition
O=C1CN(C(=O)COC(=O)CCSc2ccccc2Cl)c2ccccc2N1 | inconclusive: 22.4 µM [inhibitor, partial curve] | –
CN(Cc1ccc(OC(F)F)cc1)C(=O)c1ccccc1Sc1ccccc1C#N | – | inactive: 0.102%
CCSc1nnc(NS(=O)(=O)c2ccc(C)cc2)s1 | inconclusive: 29.9 µM [inhibitor, single point] | –

Single records (already shown). Values in the order: Potency | max response, negative = inhibition
CC(C)c1cccc(-c2ccc3c(c2)S(=O)(=O)c2cccc(C(=O)O)c2C3=O)c1 as listed: inconclusive: 29.9 µM [inhibitor, single point] | –
N#CC1=C(S)N=C(N)C(c2nc(-c3ccccc3)cs2)C12CCCC2 (centres undefined) as listed: inconclusive: 2.99 µM [inhibitor, full curve] | –

(listing goes on)

SMILES | Potency | max response, negative = inhibition
CCc1ccccc1N1C(=O)CC(Sc2nccc(C)n2)C1=O (centres undefined) | – | inactive: -0.417%
CCOC(=O)c1c(-c2ccc(-c3ccccc3)cc2)csc1NC(=O)CNCCN(C)C | inconclusive: 37.7 µM [inhibitor, single point] | –
O=C(c1ccccc1)C(Sc1ncn[nH]1)c1ccccc1 (centres undefined) | inconclusive: 21.2 µM [inhibitor, single point] | –
O=C(O)c1cccnc1Sc1ccc(Br)cc1 | inconclusive: 11.9 µM [inhibitor, partial curve] | –
CN(C)c1ccc(C(CNC(=O)c2ccccc2F)c2c[nH]c3ccccc23)cc1 (centres undefined) | – | inactive: -23%
COc1cccc2sc(NNC(=O)c3nc4ccccc4s3)nc12 | inconclusive: 29.9 µM [inhibitor, single point] | –
Cc1cc([N+](=O)[O-])ccc1NCc1ccc2ccccc2c1 | inconclusive: 37.7 µM [inhibitor, single point] | –
COCCCNC(=O)C(C#N)c1nc2ccccc2nc1N1CCCC1 (centres undefined) | inconclusive: 37.7 µM [inhibitor, single point] | –
COc1ccc(C(=O)CCNc2ccc3c(c2)OCCO3)cc1 | – | inactive: -5.88%
Nc1nc(C(=O)N2CCOCC2)nn1C(=O)c1ccc(Cl)cc1 | inconclusive: 26.7 µM [inhibitor, single point] | –
Nc1c(C(=O)O)cnn1-c1ccccc1 | active: 23.8 µM | –
COc1cc([N+](=O)[O-])cc(/C=N/NC(=O)C(C)Nc2ccccc2C)c1O (centres undefined) | – | inactive: 0.529%
CC(C)(C)c1nnc(NC(=O)Cc2ccc(Br)cc2)s1 | inconclusive: 29.9 µM [inhibitor, partial curve] | –
CSc1[nH]c(=O)c(C(=O)O)cc1C#N | – | inactive: -2.51%
CC(=O)Nc1cccc(/C(C)=N\NC(=O)c2ccc(Cn3nc([N+](=O)[O-])c(Cl)c3C)o2)c1 | active: 21.2 µM | –
O=C(N/N=C/c1ccc(-c2cccc(C(F)(F)F)c2)o1)c1ccccc1Br | – | inactive: 37.1%
Cc1cc(NC(=O)CSc2ccc3nnc(-c4ccc(Cl)cc4)n3n2)no1 | inconclusive: 23.8 µM [inhibitor, partial curve] | –
O=C(O)c1cnn(-c2ccccc2)c1-c1ccncc1 | inconclusive: 42.3 µM [inhibitor, partial curve, poor fit] | –
CCOC(=O)c1sc(N2C(=O)C(O)=C(C(=O)c3ccco3)C2c2ccco2)nc1C (centres undefined) | inconclusive: 29.9 µM [inhibitor, single point] | –
COc1ccc(CC(=O)NNC(=O)CCC(=O)Nc2cc(C)ccc2C)cc1 | inconclusive: 37.7 µM [inhibitor, single point] | –
CCOC(=O)CNC(=O)CSc1nc(Cc2cccs2)nc2ccccc12 | inconclusive: 26.7 µM [inhibitor, partial curve] | –
CC1(C)Cc2c(sc3nc(SCC(=O)N4CCOCC4)nc(N)c23)CO1 | inconclusive: 26.7 µM [inhibitor, partial curve] | –
CC(Sc1nnc(COc2ccc(Cl)cc2)o1)C(=O)Nc1ccc(N2CCOCC2)cc1 (centres undefined) | – | inactive: -8.68%
O=C(COC(=O)CNC(=O)c1ccccc1)NC1CCCC1 | – | inactive: -0.829%
CCN(c1cccc(C)c1)S(=O)(=O)c1nnc(NC(=O)c2ccco2)s1 | inconclusive: 4.23 µM [inhibitor, full curve, poor fit] | –

SMILES | Potency | max response, negative = inhibition
O=C1C(Cl)=C(NCCN2CCOCC2)C(=O)c2ccccc21 | – | inactive: 0.128%
Cc1c2c(n3c(nc4ccccc43)c1C#N)N(CCN1CCOCC1)CC2 | inconclusive: 18.9 µM [inhibitor, partial curve] | –
Cc1cccc(NC(=O)C2CCN(S(=O)(=O)c3cccc4cccnc34)CC2)c1 | inconclusive: 15 µM [inhibitor, partial curve] | –
O=C(/C=C/c1cccc([N+](=O)[O-])c1)NCCSCc1c(Cl)cccc1Cl | – | inactive: -1.83%
O=C(C(c1ccccc1)N1CCOCC1)N1CCOCC1 (centres undefined) | – | inactive: -1.6%
C/C=C\C=C/C(=O)Nc1cccc(C2=NOC3(C2)C[C@@H](C(N)=O)N(C(=O)COc2ccc(Cl)cc2)C3)c1 (some centres undefined) | inconclusive: 26.7 µM [inhibitor, partial curve] | –
Oc1cccc(N2Cc3ccccc3C2)c1 | – | inactive: -17.3%
c1ccc(SSc2ccccn2)nc1 | active: 0.67 µM | –
O=C1NN(c2cccc(Br)c2)C(=O)/C1=C/c1ccc(-c2cc([N+](=O)[O-])ccc2O)o1 | active: 18.9 µM | –
CCc1nnc(NS(=O)(=O)c2ccc(N/C=C/C(=O)c3ccc(C)cc3)cc2)s1 | inconclusive: 26.7 µM [inhibitor, partial curve] | –
COc1ccc(CS(=O)(=O)/C(Cl)=C(/Cl)C(=O)Nc2ccc(OC)nc2)cc1 | inconclusive: 23.8 µM [inhibitor, partial curve] | –
CCOc1cc(C)c(Cl)cc1S(=O)(=O)N1CCCC1 | – | inactive: 1.78%
CCc1ccccc1NC(=O)C(Cc1ccccc1)c1nn[nH]n1 (centres undefined) | – | inactive: -13.4%
CCOC(=O)C1CCN(Cc2ccc(OC)c(C)c2OC)CC1 | – | inactive: -8.55%
Oc1ccccc1C(=S)N1CCCC1 | inconclusive: 23.8 µM [inhibitor, partial curve] | –
CCOc1ccc(N(CC)C(=O)c2nn(-c3ccc(OC)cc3)c(=O)c3c2c2ccccc2n3C)cc1 | active: 26.7 µM | –
COc1ccc(/C=C2\N=C(C)OC2=O)cc1[N+](=O)[O-] | – | inconclusive: -33.8% [inhibitor]
COc1ccc(CCNC(=O)C2CCN(S(=O)(=O)c3cccc4cccnc34)CC2)cc1OC | active: 26.7 µM | –
CCCC(=O)C1C(=O)CC(C)(C)C(c2cc(C)no2)C1=O (centres undefined) | – | inactive: -1.21%
CCC(=O)N1CCN(c2ccc(NC(=S)NC(=O)c3ccc(OC)c([N+](=O)[O-])c3)cc2)CC1 | – | inactive: -17.7%
N#Cc1c(Nc2ccccc2C(F)(F)F)s[nH]c1=O | active: 26.7 µM | –
CN(C)CC(C)(C)CNC(=S)NCc1ccc2c(c1)OCO2 | inconclusive: 21.2 µM [inhibitor, partial curve] | –
CSc1nnc(-c2cccs2)n1C | inconclusive: 23.8 µM [inhibitor, partial curve] | –
Cc1ccccc1NC(=S)Nc1ccc2[nH]c(=O)[nH]c2c1 | inconclusive: 29.9 µM [inhibitor, partial curve] | –
